Assay [1] has as its target T1, antifibrotic 38-amino-acid polypeptide (AF38Pep) (disulfide bridge between the two cysteines).
T1 construct: two stretches derived from integrins β1 and α4, linked by a serine; Design contains the ISTTPAK motif of integrin β1/β7 and the KNENKI motif of integrin α4; source: synthetic peptide (ChinaPeptides)
T1 peptide: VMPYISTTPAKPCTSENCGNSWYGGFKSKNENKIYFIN
Description: condition: 300 µM COL-RGD injected into 15 µM AF38Pep; ITC; 15 µM AF38Pep in the chamber well, 300 µM small peptide in the injection needle; 25 °C; HEPES buffered saline (140 mM NaCl, 1.5 mM Na2HPO4, 50 mM HEPES; pH 7); MicroCal iTC200; one set of sites model with number of binding sites assumed to be 1; both purified.

By UniProt entry, the sequences of proteins in these tests, tags left out. Residues count along the entry.
UniProt P11276, residues 33-2477: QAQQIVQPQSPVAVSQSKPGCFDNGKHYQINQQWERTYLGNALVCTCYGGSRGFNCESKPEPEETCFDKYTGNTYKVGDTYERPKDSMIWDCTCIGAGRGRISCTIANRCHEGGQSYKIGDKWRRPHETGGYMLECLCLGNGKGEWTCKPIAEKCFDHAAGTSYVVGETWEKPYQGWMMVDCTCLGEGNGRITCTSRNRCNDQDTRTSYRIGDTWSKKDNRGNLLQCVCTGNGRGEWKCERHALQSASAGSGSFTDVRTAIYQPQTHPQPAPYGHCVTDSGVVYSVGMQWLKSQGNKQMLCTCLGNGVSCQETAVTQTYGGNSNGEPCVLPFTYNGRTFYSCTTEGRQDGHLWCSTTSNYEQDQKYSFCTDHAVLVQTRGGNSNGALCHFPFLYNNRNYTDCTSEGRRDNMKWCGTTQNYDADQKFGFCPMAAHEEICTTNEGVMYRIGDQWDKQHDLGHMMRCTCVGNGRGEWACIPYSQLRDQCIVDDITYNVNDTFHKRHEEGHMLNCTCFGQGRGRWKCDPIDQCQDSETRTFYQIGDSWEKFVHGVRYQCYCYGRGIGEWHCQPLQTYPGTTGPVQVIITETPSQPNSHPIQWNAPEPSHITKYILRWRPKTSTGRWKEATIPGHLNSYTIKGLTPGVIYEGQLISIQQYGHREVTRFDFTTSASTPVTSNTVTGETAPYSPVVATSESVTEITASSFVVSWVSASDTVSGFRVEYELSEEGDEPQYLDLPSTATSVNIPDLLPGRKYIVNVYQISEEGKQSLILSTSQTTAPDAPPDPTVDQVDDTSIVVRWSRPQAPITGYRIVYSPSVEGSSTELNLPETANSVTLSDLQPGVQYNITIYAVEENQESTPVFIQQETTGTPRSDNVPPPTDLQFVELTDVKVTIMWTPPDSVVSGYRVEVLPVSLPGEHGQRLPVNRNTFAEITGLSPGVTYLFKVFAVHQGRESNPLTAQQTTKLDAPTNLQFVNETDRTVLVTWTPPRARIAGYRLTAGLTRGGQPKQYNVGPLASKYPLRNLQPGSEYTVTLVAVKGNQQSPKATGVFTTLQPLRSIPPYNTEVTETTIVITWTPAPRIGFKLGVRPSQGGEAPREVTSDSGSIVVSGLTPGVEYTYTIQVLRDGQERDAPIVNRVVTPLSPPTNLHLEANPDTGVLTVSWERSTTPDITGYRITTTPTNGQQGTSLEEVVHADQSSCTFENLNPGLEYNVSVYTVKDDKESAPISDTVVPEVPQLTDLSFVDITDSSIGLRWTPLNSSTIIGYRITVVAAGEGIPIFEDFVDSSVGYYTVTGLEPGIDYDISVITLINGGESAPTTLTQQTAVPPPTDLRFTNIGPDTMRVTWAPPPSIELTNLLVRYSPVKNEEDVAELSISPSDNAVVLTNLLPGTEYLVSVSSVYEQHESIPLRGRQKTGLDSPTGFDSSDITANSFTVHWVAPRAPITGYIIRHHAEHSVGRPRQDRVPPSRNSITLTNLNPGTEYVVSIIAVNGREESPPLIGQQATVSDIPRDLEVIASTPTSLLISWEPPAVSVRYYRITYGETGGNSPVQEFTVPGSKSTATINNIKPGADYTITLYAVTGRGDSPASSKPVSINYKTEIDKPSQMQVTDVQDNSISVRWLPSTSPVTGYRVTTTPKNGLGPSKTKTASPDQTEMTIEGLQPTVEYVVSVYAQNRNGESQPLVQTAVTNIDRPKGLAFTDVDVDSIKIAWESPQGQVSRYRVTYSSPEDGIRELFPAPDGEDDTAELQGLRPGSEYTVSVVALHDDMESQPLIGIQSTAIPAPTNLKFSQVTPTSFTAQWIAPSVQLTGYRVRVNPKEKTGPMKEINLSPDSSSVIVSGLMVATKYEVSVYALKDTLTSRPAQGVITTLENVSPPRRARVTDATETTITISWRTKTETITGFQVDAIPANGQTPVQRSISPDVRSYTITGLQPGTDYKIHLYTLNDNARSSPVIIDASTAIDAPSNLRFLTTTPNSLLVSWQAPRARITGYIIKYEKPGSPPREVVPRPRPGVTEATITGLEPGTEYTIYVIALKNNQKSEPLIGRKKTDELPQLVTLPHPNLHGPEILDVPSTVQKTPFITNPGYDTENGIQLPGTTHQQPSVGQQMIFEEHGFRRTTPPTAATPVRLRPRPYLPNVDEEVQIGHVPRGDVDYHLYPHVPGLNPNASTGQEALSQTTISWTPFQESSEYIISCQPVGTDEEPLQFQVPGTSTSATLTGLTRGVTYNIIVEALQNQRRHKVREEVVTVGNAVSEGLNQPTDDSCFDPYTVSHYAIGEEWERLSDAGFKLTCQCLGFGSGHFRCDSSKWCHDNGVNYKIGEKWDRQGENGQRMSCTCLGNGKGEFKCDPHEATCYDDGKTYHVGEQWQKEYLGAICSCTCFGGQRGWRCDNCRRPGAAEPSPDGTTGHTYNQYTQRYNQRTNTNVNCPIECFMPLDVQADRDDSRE

Assay [2] addresses extra domain A containing fibronectin (EDA-FN) (not stated (endogenous in fibroblasts; mouse NIH/3T3 and human HFL1 cells were cultured)) (UniProt P11276). Description: co-IP; as a2; synthetic AF38Pep added to the cells for 48 h (with TGF-β1) before lysis and anti-ITGA4 immunoprecipitation; read-out is the EDA-FN coeluted with ITGA4; only the binder purified.
In assay [3] the target is T1, antifibrotic 38-amino-acid polypeptide …. Description: condition: 300 µM FN-RGD injected into 15 µM AF38Pep; ITC; 15 µM AF38Pep in the chamber well, 300 µM small peptide in the injection needle; 25 °C; HEPES buffered saline (140 mM NaCl, 1.5 mM Na2HPO4, 50 mM HEPES; pH 7); MicroCal iTC200; one set of sites model with number of binding sites assumed to be 1; both purified.

These results are taken from publication PMC7913925, “Design and Evaluation of a Polypeptide That Mimics the Integrin Binding Site for EDA Fibronectin to Block Profibrotic Cell Activity” (International Journal of Molecular Sciences, 2021).

These are yes or no findings as the source states them, for the method shown. For part of these data: In cells and extracts the contact can be indirect. Some binding calls cover weakened binding; strength is not graded here.

On to GPKGDRGDAGPK [COL-RGD, a peptide derived from the integrin β1 subunit-binding RGD motif of collagen I], for which the binding result in assay [1] was “no binding”.
Consider VMPYISTTPAKPCTSENCGNSWYGGFKSKNENKIYFIN (designed binder, disulfide bridge between the two cysteines) [antifibrotic 38-amino-acid polypeptide (AF38Pep)], for which, in assay [2], the binding result is “binds”.
Turning to YAVTGRGDSPAS [FN-RGD, a peptide derived from the integrin β1 and β3 subunit-binding RGD motif of fibronectin], the binding entry in assay [3] is reported as “no binding”.
